# Measurements as given in PubChem BioAssay AID1487 (National Center for Advancing Translational Sciences (NCATS), 2009).
# Some of the results follow. Shown are side measurements of this screen, not its main read-out; they come without a call. Most of these compounds were active or inconclusive in the main read-out, so they are no random draw. Potencies come from curve fits of mixed quality, noted in brackets.
# Assay: qHTS Assay for Modulators of Lamin A Splicing
# Conditions: HeLa LMNA splicing GFP/RFP minigene ratio, 48 h
# In short: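 Read-out is the ratio of GFP to DsRed2 object intensity, acquired by 488 nm laser-scanning cytometry on HeLa lamin A-EGFP minigene reporter cells. Compound incubation 48 hrs at 37 °C in Opti-MEM with 2% FBS; DMSO 0.5% final.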
# [1] = measured here: GFP splicing reporter channel
# [2] = measured here: RFP viability control channel
compound,measurement,setting,value
CCc1ccc(-n2c(C)nc3cc(C(=O)NCCc4ccccc4)ccc32)cc1,AC50,[1],"10 µM [falling, partial curve, poor fit]"
CCN1/C(=C/c2ccc3ccc(C)cc3[n+]2CC)Sc2ccccc21,AC50,[2],"5.01 µM [rising, single point]"
Cc1ccc(CCNC(=O)CCSCc2ccc(Cl)cc2)cc1,AC50,[1],"0.141 µM [falling, full curve, poor fit]"
same,AC50,[2],"0.0631 µM [falling, full curve, poor fit]"
CCc1cc(C(=O)Cc2cnn(-c3ccccc3)c2)c(O)cc1O,AC50,[1],"12.6 µM [rising, partial curve]"
same,AC50,[2],"14.1 µM [rising, partial curve]"
CCN(CC)CCNC(=O)c1cc(Br)c(N)cc1OC,AC50,[1],"0.2 µM [falling, full curve, poor fit]"
O=Cc1cccc(Oc2ccc([N+](=O)[O-])cc2[N+](=O)[O-])c1,AC50,[2],"14.1 µM [rising, partial curve, poor fit]"
Cc1cc(OCC(=O)Nc2cccc(S(=O)(=O)NC3=NCCCCC3)c2)ccc1Cl,AC50,[1],"20 µM [rising, single point]"
same,AC50,[2],"35.5 µM [rising, single point]"
CN(c1ccccc1)S(=O)(=O)c1cccc(NC(=O)CC(C)(C)C)c1,AC50,[1],"2 µM [rising, full curve, poor fit]"
same,AC50,[2],"14.1 µM [rising, partial curve]"
O=C(O)CS/C(=C\c1ccc(F)cc1)c1nc2ccccc2s1,AC50,[2],"7.08 µM [rising, partial curve]"
O=C(CCc1nnc(-c2ccccc2)o1)NCc1cc(F)ccc1F,AC50,[2],"0.631 µM [rising, partial curve, poor fit]"
CCCSc1cc(NCCOC(=O)CCC)c([N+](=O)[O-])c2nonc12,AC50,[2],"22.4 µM [rising, single point]"
CCCCC(=O)NC(=S)Nc1cccc(C(=O)O)c1,AC50,[1],"0.00316 µM [falling, full curve, poor fit]"
COc1ccc(-c2cccc(NS(=O)(=O)c3cc(C)c(Cl)cc3C)c2)nn1,AC50,[1],"3.16 µM [falling, partial curve, poor fit]"
same,AC50,[2],"0.0447 µM [falling, full curve, poor fit]"
Cc1cccc(CS(=O)(=O)Cc2ccc(C(=O)NCc3ccc(Cl)cc3)o2)c1,AC50,[2],"28.2 µM [falling, partial curve]"
CN(c1ccc(Cl)cc1)c1cc(=O)n(C)c2ccccc12,AC50,[2],"14.1 µM [rising, partial curve]"
CC1CCCC(C)N1C(=O)c1cc2ncc(CCCl)cn2n1 (configuration not stated),AC50,[1],"35.5 µM [rising, single point]"
same,AC50,[2],"22.4 µM [rising, single point]"
Cc1nn2c(-c3cccc(NC(=O)CSc4nc5ccccc5o4)c3)nnc2c2ccccc12,AC50,[2],"35.5 µM [rising, single point]"
O=C(CSc1nc2ccccc2o1)N1c2ccccc2Sc2ccccc21,AC50,[2],"22.4 µM [rising, single point]"
O=C1c2ccccc2C(=O)N1CCc1csc(-c2cccc(Cl)c2)n1,AC50,[2],"11.2 µM [rising, single point]"
COc1cccc(CSc2nc3n(n2)C(c2ccccc2C)C(C(=O)Nc2ccccc2OC)=C(C)N3)c1 (configuration not stated),AC50,[1],"22.4 µM [rising, single point]"
same,AC50,[2],"31.6 µM [rising, single point]"
CCOc1ccc2nc(N3CCCN(C(=O)Nc4ccccc4C)CC3)c(C#N)cc2c1,AC50,[1],"35.5 µM [rising, single point]"
same,AC50,[2],"35.5 µM [rising, single point]"
CC(=O)Nc1ccc(OCc2nnc(-c3ccc(Cl)cc3)o2)cc1,AC50,[1],"7.94 µM [rising, partial curve]"
Cc1cc(NC(c2cccnc2)c2ccc3cccnc3c2O)no1 (configuration not stated),AC50,[1],"35.5 µM [rising, single point]"
same,AC50,[2],"15.8 µM [rising, partial curve]"
CCOC(=O)Cc1[nH]nc2c1C(C1C=CCCC1)C(C#N)=C(N)O2 (configuration not stated),AC50,[1],"31.6 µM [rising, single point]"
same,AC50,[2],"35.5 µM [rising, single point]"
Cc1ccc(O)c(-c2cc(C(=O)Nc3c(C)n(C)n(-c4ccccc4)c3=O)[nH]n2)c1,AC50,[1],"0.01 µM [falling, full curve, poor fit]"
Cc1cc(C)n(C(=O)CCN2C(=O)c3ccccc3C2=O)n1,AC50,[1],"5.62 µM [rising, single point]"
CC(C)CN(CC(C)C)C(=O)Cc1coc2ccc3ccccc3c12,AC50,[1],"12.6 µM [rising, partial curve, poor fit]"
same,AC50,[2],"17.8 µM [rising, single point]"
Nc1nc2c(Cl)cc(Cl)cc2s1,AC50,[1],"0.00447 µM [rising, full curve, poor fit]"
Cc1ccc(O)c(C(=O)CC(=O)c2ccccc2Cl)c1,AC50,[2],"12.6 µM [rising, single point]"
COc1ccccc1CNc1ncnc2ccc(-c3ccc(N(C)C)cc3)cc12,AC50,[1],"22.4 µM [falling, partial curve]"
same,AC50,[2],"2.24 µM [falling, partial curve]"
N#Cc1cccc(NC(=O)NCCc2c[nH]c3ccccc23)c1,AC50,[1],"0.158 µM [falling, full curve, poor fit]"
same,AC50,[2],"0.178 µM [falling, full curve, poor fit]"
Cc1cc(NC2CCCCC2)nc(NCc2ccccc2)n1,AC50,[1],"14.1 µM [rising, partial curve]"
same,AC50,[2],"14.1 µM [rising, partial curve]"
CCCOC(=O)/C(C(N)=NCc1ccccc1)=C(\O)OCCC,AC50,[2],"14.1 µM [rising, single point]"
O=C(NCc1ccc(Cl)cc1)C1CCCN(c2ncnc3onc(-c4ccc(F)cc4)c23)C1 (configuration not stated),AC50,[2],"11.2 µM [rising, single point]"
COc1cc(/C=C\C(=O)NCc2ccc3[nH]c(C)cc3c2)cc(OC)c1OC,AC50,[1],"35.5 µM [rising, single point]"
same,AC50,[2],"20 µM [rising, partial curve]"
OC(CCN1CCCCC1)(c1ccccc1)c1ccccc1,AC50,[1],"25.1 µM [falling, single point]"
same,AC50,[2],"31.6 µM [falling, single point]"
Cn1cc([N+](=O)[O-])c(C(=O)Nc2ccc3c(c2)OCCO3)n1,AC50,[1],"28.2 µM [falling, single point]"
same,AC50,[2],"35.5 µM [falling, single point]"
COc1ccc(-c2nnc(SCC(=O)NCC3CCCO3)n2C)cc1 (configuration not stated),AC50,[2],"0.794 µM [falling, single point]"
COCCNC(=O)CSc1nc(-c2ccccc2)c(-c2ccccc2)o1,AC50,[2],"35.5 µM [rising, single point]"
Cc1cc(-c2cc(-c3ccc(Cl)cc3)nc(N)c2C#N)co1,AC50,[2],"11.2 µM [falling, partial curve]"
O=C(NC1CCCC1)c1ccc2c(c1)N(Cc1ccc(F)cc1)C(=O)c1ccccc1S2,AC50,[1],"3.55 µM [rising, partial curve]"
CC1=C(C(=O)Nc2cccc(C)c2C)C(c2cccs2)NC(=S)N1 (configuration not stated),AC50,[2],"7.94 µM [rising, partial curve]"
COc1cccc(N2C(=O)CC(N3CCN(CCN=CC4=C(O)CC(C)(C)CC4=O)CC3)C2=O)c1 (configuration not stated),AC50,[1],"0.00891 µM [rising, full curve, poor fit]"
same,AC50,[2],"2.82 µM [rising, partial curve, poor fit]"
CCC(C)NS(=O)(=O)c1ccc(S(=O)(=O)Nc2cc3c(cc2C(C)=O)OCO3)cc1 (configuration not stated),AC50,[1],"14.1 µM [rising, partial curve]"
same,AC50,[2],"22.4 µM [rising, single point]"
CCCN1CCN(C(=S)Nc2ccc([N+](=O)[O-])cc2)CC1,AC50,[2],"12.6 µM [rising, single point]"
O=C(NCCNc1ccc([N+](=O)[O-])cc1C(F)(F)F)c1ccc(F)cc1,AC50,[2],"22.4 µM [rising, single point]"
COc1ccc(F)cc1C(=O)C1CCCN(Cc2ccc(Oc3ncccn3)cc2)C1 (configuration not stated),AC50,[2],"0.00355 µM [falling, full curve, poor fit]"
Cc1cccc(-c2noc(CN(C(C)C)S(=O)(=O)c3ccc(F)cc3)n2)c1,AC50,[2],"12.6 µM [rising, partial curve]"
N#CC1=C(N)C(C#N)(C#N)[C@H](c2ccoc2)[C@H]2CN(Cc3ccccc3)CC=C12,AC50,[2],"7.94 µM [rising, partial curve]"
COc1cccc(-c2nc(CS(=O)CC(=O)N3CCN(c4cccc(C(F)(F)F)c4)CC3)c(C)o2)c1 (configuration not stated),AC50,[1],"22.4 µM [falling, partial curve, poor fit]"
same,AC50,[2],"0.631 µM [falling, partial curve, poor fit]"
Cc1ccc(SCC(=O)Nc2ccc3oc(-c4cccc(C)c4)nc3c2)cc1,AC50,[1],"0.00794 µM [falling, full curve]"
same,AC50,[2],"0.0251 µM [falling, full curve, poor fit]"
O=C(Cn1cnc2c(cnn2-c2ccccc2)c1=O)N1CCCc2ccccc21,AC50,[1],"12.6 µM [rising, single point]"
same,AC50,[2],"20 µM [rising, single point]"
CCNc1ncc2nc(-c3cccs3)c(=O)n(Cc3cccs3)c2n1,AC50,[1],"14.1 µM [falling, partial curve]"
same,AC50,[2],"25.1 µM [falling, partial curve, poor fit]"
O=C(COc1ccc(Cl)cc1)NC1=NN(c2ccccc2)C(=O)C1,AC50,[2],"11.2 µM [rising, single point]"

# Part of the list above, with tabs.
compound	measurement	setting	value
Cc1cccc(-c2noc(CN(C(C)C)S(=O)(=O)c3ccc(F)cc3)n2)c1	AC50	[2]	12.6 µM [rising, partial curve]
N#CC1=C(N)C(C#N)(C#N)[C@H](c2ccoc2)[C@H]2CN(Cc3ccccc3)CC=C12	AC50	[2]	7.94 µM [rising, partial curve]
COc1cccc(-c2nc(CS(=O)CC(=O)N3CCN(c4cccc(C(F)(F)F)c4)CC3)c(C)o2)c1 (configuration not stated)	AC50	[1]	22.4 µM [falling, partial curve, poor fit]
